Measurements as given in the supplement of paper PMC10849652.
The other results are listed elsewhere or left out.

Amino acid sequences for entries named in this document (tags omitted). A change or cut given only in a name is not applied to a line headed by its entry.
UniProt Q14126: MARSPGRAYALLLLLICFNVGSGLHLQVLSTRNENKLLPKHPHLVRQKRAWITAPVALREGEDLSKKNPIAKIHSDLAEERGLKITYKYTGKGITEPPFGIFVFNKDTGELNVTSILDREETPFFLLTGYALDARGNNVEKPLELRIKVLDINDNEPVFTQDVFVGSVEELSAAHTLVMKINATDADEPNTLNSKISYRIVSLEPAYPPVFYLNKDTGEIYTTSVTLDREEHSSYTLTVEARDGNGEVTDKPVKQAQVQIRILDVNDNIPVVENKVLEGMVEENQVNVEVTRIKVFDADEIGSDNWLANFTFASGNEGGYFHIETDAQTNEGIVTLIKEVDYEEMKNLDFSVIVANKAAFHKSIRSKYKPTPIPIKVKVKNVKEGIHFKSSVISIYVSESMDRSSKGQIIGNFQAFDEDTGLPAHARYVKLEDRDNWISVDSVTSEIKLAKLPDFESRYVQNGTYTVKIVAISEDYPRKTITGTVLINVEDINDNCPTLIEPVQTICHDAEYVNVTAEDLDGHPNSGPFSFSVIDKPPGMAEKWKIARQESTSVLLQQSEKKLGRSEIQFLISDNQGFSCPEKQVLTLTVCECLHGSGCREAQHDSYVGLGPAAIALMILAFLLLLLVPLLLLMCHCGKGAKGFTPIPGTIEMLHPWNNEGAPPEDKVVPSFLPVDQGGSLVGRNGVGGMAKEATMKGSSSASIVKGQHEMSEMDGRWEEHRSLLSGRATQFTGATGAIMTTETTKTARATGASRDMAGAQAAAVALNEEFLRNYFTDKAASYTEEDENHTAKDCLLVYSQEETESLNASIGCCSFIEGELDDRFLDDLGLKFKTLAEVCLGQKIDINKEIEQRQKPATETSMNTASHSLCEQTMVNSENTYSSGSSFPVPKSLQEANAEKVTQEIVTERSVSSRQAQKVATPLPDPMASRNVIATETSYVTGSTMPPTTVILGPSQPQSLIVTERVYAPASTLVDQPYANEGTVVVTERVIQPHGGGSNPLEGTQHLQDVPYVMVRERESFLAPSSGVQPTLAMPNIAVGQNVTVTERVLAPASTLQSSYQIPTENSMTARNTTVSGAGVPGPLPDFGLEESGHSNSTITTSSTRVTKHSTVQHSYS
UniProt Q96C19: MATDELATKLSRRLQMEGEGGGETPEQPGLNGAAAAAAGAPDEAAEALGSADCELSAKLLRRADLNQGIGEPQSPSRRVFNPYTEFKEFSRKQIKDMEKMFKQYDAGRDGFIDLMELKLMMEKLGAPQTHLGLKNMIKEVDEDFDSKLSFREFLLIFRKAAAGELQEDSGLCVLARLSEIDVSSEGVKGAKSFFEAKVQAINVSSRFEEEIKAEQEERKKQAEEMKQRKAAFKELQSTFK
UniProt Q8N3D4: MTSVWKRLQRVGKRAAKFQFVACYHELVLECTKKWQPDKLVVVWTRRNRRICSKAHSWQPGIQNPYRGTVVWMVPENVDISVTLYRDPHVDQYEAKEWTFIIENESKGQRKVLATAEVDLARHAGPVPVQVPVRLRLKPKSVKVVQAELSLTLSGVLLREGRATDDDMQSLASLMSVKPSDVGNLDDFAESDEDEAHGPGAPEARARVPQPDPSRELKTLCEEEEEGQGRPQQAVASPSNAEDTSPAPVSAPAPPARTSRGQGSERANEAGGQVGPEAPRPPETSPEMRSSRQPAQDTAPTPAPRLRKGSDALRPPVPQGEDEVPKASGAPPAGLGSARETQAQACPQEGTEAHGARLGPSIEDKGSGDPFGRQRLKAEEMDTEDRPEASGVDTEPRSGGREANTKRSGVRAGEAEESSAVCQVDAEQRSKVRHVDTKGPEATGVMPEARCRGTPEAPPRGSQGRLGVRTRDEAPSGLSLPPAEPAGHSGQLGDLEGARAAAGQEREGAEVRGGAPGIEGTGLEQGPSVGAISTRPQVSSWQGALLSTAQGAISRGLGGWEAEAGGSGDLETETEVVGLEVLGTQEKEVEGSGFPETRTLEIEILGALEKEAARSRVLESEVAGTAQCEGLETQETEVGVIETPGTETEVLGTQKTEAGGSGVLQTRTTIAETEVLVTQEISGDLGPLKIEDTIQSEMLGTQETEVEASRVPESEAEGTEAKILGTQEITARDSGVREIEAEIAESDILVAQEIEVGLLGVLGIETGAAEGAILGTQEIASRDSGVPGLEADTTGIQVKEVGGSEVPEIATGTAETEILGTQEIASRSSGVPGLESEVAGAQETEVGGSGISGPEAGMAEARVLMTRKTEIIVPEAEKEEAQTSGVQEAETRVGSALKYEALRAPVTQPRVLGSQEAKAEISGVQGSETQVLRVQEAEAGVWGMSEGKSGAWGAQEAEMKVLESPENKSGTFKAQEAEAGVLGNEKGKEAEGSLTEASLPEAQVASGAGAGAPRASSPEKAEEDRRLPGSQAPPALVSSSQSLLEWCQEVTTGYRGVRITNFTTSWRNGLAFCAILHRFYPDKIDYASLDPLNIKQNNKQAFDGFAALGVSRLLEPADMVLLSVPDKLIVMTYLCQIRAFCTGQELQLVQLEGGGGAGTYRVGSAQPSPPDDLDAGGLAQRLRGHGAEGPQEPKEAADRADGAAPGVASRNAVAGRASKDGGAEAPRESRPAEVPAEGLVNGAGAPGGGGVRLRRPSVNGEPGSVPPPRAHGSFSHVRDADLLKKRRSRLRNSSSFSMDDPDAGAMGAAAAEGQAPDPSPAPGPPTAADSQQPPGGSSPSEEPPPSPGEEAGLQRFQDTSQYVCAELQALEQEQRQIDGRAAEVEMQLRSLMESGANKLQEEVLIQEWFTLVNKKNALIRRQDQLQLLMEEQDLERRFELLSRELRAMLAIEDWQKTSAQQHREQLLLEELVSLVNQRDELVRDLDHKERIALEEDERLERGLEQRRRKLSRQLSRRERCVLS
UniProt P47813, whole entry, looked up: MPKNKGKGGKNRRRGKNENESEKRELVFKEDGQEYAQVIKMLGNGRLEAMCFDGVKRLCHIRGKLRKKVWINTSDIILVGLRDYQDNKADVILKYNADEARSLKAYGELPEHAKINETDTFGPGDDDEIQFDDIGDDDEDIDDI
UniProt Q16254: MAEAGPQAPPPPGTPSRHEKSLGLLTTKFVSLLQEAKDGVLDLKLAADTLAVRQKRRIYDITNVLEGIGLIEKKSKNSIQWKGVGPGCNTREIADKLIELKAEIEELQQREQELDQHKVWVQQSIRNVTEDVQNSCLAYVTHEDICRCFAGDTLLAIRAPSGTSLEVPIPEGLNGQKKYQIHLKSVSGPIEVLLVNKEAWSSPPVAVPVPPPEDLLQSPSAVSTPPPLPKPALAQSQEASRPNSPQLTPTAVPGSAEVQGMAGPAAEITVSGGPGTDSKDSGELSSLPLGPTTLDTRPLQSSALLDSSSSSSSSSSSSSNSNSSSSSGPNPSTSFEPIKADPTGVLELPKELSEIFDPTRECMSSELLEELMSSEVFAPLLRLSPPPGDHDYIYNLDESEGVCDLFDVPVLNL
UniProt Q01658: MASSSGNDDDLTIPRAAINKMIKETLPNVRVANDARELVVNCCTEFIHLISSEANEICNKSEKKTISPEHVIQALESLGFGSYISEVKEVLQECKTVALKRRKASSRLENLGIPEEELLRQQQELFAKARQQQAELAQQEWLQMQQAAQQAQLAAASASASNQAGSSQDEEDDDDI
UniProt Q7RTS9: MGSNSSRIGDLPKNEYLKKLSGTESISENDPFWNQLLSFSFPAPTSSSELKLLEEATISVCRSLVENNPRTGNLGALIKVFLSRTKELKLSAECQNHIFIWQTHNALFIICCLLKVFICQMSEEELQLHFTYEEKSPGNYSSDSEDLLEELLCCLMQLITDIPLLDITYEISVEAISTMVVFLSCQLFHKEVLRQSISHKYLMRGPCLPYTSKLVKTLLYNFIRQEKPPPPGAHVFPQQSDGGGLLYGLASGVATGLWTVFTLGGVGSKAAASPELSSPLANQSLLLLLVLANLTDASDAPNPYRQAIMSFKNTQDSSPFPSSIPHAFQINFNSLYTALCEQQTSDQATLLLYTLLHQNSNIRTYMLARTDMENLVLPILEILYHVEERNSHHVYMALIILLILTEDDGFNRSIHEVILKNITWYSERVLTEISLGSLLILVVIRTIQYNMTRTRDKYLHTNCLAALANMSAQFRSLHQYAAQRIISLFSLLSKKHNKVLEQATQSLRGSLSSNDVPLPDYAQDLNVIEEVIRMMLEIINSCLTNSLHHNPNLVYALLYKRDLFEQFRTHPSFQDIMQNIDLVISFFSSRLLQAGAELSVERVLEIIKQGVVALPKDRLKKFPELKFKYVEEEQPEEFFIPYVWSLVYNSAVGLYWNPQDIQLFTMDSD
UniProt P29692: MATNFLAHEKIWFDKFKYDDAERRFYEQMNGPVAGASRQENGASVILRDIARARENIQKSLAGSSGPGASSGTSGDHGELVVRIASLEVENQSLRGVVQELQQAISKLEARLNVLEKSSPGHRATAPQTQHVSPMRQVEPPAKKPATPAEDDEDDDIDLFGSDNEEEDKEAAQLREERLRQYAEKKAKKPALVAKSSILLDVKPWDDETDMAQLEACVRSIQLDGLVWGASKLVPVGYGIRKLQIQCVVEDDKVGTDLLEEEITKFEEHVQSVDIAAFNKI
UniProt Q5VTE0, whole entry, looked up: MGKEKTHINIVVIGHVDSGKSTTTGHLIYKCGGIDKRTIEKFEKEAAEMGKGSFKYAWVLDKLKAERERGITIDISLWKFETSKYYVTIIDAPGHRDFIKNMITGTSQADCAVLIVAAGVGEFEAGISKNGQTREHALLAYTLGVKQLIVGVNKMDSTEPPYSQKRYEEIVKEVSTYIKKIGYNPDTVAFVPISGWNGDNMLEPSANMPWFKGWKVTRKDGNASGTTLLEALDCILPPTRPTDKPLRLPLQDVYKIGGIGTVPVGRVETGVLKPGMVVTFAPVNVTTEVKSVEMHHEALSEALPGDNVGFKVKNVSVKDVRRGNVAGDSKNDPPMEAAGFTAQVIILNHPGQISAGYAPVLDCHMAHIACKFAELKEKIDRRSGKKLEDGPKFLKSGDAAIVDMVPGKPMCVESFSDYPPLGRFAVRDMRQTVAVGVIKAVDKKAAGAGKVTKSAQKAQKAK
UniProt Q99848: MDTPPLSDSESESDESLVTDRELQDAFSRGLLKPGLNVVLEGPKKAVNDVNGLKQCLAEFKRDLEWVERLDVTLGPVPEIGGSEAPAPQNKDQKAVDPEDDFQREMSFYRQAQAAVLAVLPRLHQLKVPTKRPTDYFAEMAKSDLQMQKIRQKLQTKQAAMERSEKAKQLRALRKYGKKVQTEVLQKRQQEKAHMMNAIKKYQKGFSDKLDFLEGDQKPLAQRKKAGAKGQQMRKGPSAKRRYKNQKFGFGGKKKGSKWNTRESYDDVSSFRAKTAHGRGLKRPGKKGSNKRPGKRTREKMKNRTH
UniProt P42126: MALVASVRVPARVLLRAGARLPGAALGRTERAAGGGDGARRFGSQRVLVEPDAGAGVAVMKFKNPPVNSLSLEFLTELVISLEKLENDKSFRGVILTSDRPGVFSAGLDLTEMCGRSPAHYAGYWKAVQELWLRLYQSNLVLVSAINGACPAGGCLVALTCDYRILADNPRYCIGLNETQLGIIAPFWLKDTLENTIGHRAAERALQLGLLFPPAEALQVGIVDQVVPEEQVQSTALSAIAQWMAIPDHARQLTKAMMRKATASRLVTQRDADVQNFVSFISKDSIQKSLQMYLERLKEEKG
UniProt O95905: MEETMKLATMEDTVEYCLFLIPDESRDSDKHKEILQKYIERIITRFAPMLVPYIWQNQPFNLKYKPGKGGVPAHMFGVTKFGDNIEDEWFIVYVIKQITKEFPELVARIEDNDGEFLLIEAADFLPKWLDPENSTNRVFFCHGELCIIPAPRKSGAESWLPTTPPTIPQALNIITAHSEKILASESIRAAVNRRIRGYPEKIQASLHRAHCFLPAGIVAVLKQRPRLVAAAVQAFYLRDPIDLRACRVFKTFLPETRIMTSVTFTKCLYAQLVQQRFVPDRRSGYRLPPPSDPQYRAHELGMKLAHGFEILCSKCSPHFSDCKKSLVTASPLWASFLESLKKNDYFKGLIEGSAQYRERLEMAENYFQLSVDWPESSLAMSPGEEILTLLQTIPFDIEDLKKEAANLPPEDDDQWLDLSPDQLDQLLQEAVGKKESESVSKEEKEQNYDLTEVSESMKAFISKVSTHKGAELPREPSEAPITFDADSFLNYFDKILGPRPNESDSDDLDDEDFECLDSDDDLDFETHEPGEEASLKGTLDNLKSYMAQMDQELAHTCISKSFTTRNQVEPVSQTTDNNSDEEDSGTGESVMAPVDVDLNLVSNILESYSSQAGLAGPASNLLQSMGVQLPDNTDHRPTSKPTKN

Tests used:
Test in all cases: log2 fold change, soluble protein after heating vs DMSO (PISA); higher = thermal stabilisation; K562 lysate, 10 uM; active = over 0.2 and 3.5 SD of the protein, either way, in both replicates (recomputed)
[1] = compound: CN1CC[C@H](c2c(O)cc(O)c3c(=O)cc(-c4ccccc4Cl)oc23)[C@H](O)C1 [alvocidib]
Method in brief: (§1)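 Dounce homogenisation of K562 pellets in PBS pH 7.4 with 1 mM MgCl2 produced a crude extract, used at 1 mg/mL protein. Exposure to 10 μM compound lasted 30 min, and aliquots were then heated for 3 min across 48°C-58°C, pooled and brought to 0.5% NP-40 at 4°C. The supernatant after 21,000xg for 90 min was quantified by TMTpro 16plex LC-MS/MS with channel sums equalised. Duplicate values are given as log-two fold change in thermal stability relative to solvent controls.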

[2] = compound: CN1CCc2c(c3ccccc3n2Cc2ccc(C(=O)NO)cc2)C1 [Tubastatin A]
Method in brief: as §1

[3] = compound: CNC(=O)C1=CC=CC=C1NC2=NC(=NC=C2Cl)NC3=C(C=C(C=C3)N4CCOCC4)OC
Method in brief: as §1

[4] = compound: CNC(=O)c1ccc(Nc2ncc(C(F)(F)F)c(NCc3nccnc3N(C)S(C)(=O)=O)n2)cc1 [defactinib]
Method in brief: as §1

[5] = compound: CNc1nc(-c2ccc3c(N)n[nH]c3c2)cc(N2C[C@@H](C(=O)NC3CCCCC3)CC[C@H]2C)n1
Method in brief: as §1

[6] = compound: COC(=O)N[C@@H](C)CNc1nccc(-c2cn(C(C)C)nc2-c2cc(Cl)cc(NS(C)(=O)=O)c2F)n1 [encorafenib]
Method in brief: as §1

[7] = compound: COC(=O)[C@H](CCSC)NC(=O)C1=C(C=C(C=C1)NC[C@H](CS)N)C2=CC=CC=C2
Method in brief: as §1

[8] = compound: COc1cc(Nc2ncc3c(n2)-c2ccc(Cl)cc2C(c2c(F)cccc2OC)=NC3)ccc1C(=O)O [alisertib]
Method in brief: as §1

[9] = compound: COc1cc2nc(-c3cc(F)ccc3O)nc(N[C@@H]3CNC[C@H]3C(C)(C)O)c2cc1OC
Method in brief: as §1

[10] = compound: COc1cc2ncnc(Nc3ccc(F)c(Cl)c3)c2cc1OCCCN1CCOCC1 [gefitinib]
Method in brief: as §1

[11] = compound: CS(=O)(=O)CCNCc1ccc(-c2ccc3ncnc(Nc4ccc(OCc5cccc(F)c5)c(Cl)c4)c3c2)o1 [lapatinib]
Method in brief: as §1

[12] = compound: CS(=O)(=O)N1CCN(Cc2cc3nc(-c4cccc5[nH]ncc45)nc(N4CCOCC4)c3s2)CC1 [pictilisib]
Method in brief: as §1

[13] = compound: C[C@@H](Oc1cc(-c2cnn(C3CCNCC3)c2)cnc1N)c1c(Cl)ccc(F)c1Cl [crizotinib]
Method in brief: as §1

[14] = compound: C[C@H](C1=CC=C(C=C1)C(=O)NC2=C3C=CNC3=NC=C2)N
Method in brief: as §1

[15] = compound: C[C@H](Nc1ncnc2nc[nH]c12)c1cc2cccc(Cl)c2c(=O)n1-c1ccccc1 [duvelisib]
Method in brief: as §1

[16] = compound: Cc1cc(Nc2cc(CN3CCOCC3)c3nc(C)c(Cc4ccc(Cl)cc4F)n3n2)n[nH]1 [gandotinib]
Method in brief: as §1

[17] = compound: Cc1cc(Nc2cc(N3CCN(C)CC3)nc(Sc3ccc(NC(=O)C4CC4)cc3)n2)n[nH]1 [tozasertib]
Method in brief: as §1

[18] = compound: Cc1ccc(-n2nc(C(C)(C)C)cc2NC(=O)Nc2ccc(OCCN3CCOCC3)c3ccccc23)cc1 [doramapimod]
Method in brief: as §1

[19] = compound: Cc1ccc(NC(=O)c2ccc(CN3CC[C@H](N(C)C)C3)c(C(F)(F)F)c2)cc1Nc1nccc(-c2cncnc2)n1 [bafetinib]
Method in brief: as §1

[20] = compound: Cc1cccc(CC(=O)N2CCc3c2ccc(-c2cn(C)c4ncnc(N)c24)c3F)n1
Method in brief: as §1

Measured: log2 fold change

DSG2 (UniProt Q14126)
inactive: [1] -0.023 | [2] -0.004 | [3] 0.018 | [4] 0.048 | [5] -0.039 | [6] -0.011 | [7] -0.003 | [8] -0.001 | [9] 0 | [10] 0.027 | [11] 0.023 | [12] -0.016 | [13] 0.007 | [14] 0.015 | [15] -0.019 | [16] 0.007 | [17] -0.005 | [18] 0.015 | [19] 0.035 | [20] -0.017

EI24 (UniProt O14681)
inactive: [1] 0.07 | [2] 0.031 | [3] -0.03 | [4] 0.016 | [5] -0.042 | [6] 0.093 | [7] -0.014 | [8] 0.025 | [9] -0.01 | [10] 0.009 | [11] -0.045 | [12] -0.007 | [13] 0.013 | [14] 0.123 | [15] -0.033 | [16] -0.115 | [17] 0.003 | [18] -0.161 | [19] -0.021 | [20] -0.066

EFHD2 (UniProt Q96C19)
inactive: [1] 0.01 | [2] 0.052 | [3] 0.013 | [4] -0.008 | [5] 0.045 | [6] 0.008 | [7] -0.033 | [8] 0.002 | [9] -0.009 | [10] -0.016 | [11] 0 | [12] 0.024 | [13] 0.027 | [14] -0.05 | [15] 0.038 | [16] 0.085 | [17] 0.003 | [18] 0.01 | [19] 0.003 | [20] -0.005

EHBP1L1 (UniProt Q8N3D4)
inactive: [1] -0.027 | [2] -0.064 | [3] -0.005 | [4] -0.013 | [5] 0.055 | [6] 0.025 | [7] -0.048 | [8] 0.005 | [9] 0.082 | [10] 0.043 | [11] -0.038 | [12] 0.005 | [13] -0.003 | [14] -0.063 | [15] 0.023 | [16] -0.004 | [17] 0.025 | [18] -0.002 | [19] -0.073 | [20] 0.051

Copied from above (two entries):
DSG2 (UniProt Q14126)
inactive: [1] -0.023 | [2] -0.004 | [3] 0.018 | [4] 0.048 | [5] -0.039 | [6] -0.011 | [7] -0.003 | [8] -0.001 | [9] 0 | [10] 0.027 | [11] 0.023 | [12] -0.016 | [13] 0.007 | [14] 0.015 | [15] -0.019 | [16] 0.007 | [17] -0.005 | [18] 0.015 | [19] 0.035 | [20] -0.017

EI24 (UniProt O14681)
inactive: [1] 0.07 | [2] 0.031 | [3] -0.03 | [4] 0.016 | [5] -0.042 | [6] 0.093 | [7] -0.014 | [8] 0.025 | [9] -0.01 | [10] 0.009 | [11] -0.045 | [12] -0.007 | [13] 0.013 | [14] 0.123 | [15] -0.033 | [16] -0.115 | [17] 0.003 | [18] -0.161 | [19] -0.021 | [20] -0.066

Further results follow:

EIF1AX (UniProt P47813)
inactive: [1] 0.007 | [2] 0.034 | [3] 0.03 | [4] -0.024 | [5] -0.03 | [6] -0.018 | [7] -0.031 | [8] 0.016 | [9] -0.026 | [10] -0.079 | [11] 0.122 | [12] 0.052 | [13] 0.006 | [14] 0.008 | [15] -0.031 | [16] -0.028 | [17] -0.019 | [18] -0.033 | [19] 0.107 | [20] -0.026

DPY19L1, A0A1B0GW05
inactive: [1] 0.047 | [2] -0.031 | [3] 0.052 | [4] 0.004 | [5] -0.056 | [6] 0.03 | [7] -0.079 | [8] 0.08 | [9] -0.096 | [10] -0.002 | [11] -0.014 | [12] 0.069 | [13] -0.057 | [14] -0.03 | [15] -0.011 | [16] -0.044 | [17] -0.033 | [18] 0.012 | [19] -0.022 | [20] 0.019

E2F4 (UniProt Q16254)
inactive: [1] 0.003 | [2] -0.081 | [3] 0.059 | [4] 0.033 | [5] -0.016 | [6] 0.044 | [7] -0.089 | [8] 0.01 | [9] -0.038 | [10] 0.069 | [11] 0.014 | [12] 0.018 | [13] -0.03 | [14] -0.01 | [15] 0.107 | [16] 0.041 | [17] 0.038 | [18] 0.055 | [19] -0.089 | [20] 0.024

DR1 (UniProt Q01658)
inactive: [1] -0.02 | [2] 0.066 | [3] -0.034 | [4] 0.006 | [5] 0.031 | [6] 0.035 | [7] -0.047 | [8] -0.028 | [9] 0.035 | [10] 0.022 | [11] -0.01 | [12] -0.009 | [13] 0.03 | [14] -0.005 | [15] 0.042 | [16] 0.085 | [17] -0.039 | [18] 0.014 | [19] 0.008 | [20] -0.011

DYM (UniProt Q7RTS9)
inactive: [1] 0.007 | [2] -0.005 | [3] 0.046 | [4] 0.118 | [5] 0.021 | [6] 0.237 | [7] 0.001 | [8] 0.056 | [9] 0.038 | [10] 0.005 | [11] -0.054 | [12] 0.01 | [13] -0.135 | [14] -0.03 | [15] 0.031 | [16] -0.133 | [17] -0.064 | [18] -0.028 | [19] -0.043 | [20] 0.052

EAF1 (UniProt Q96JC9)
inactive: [1] -0.015 | [2] 0.027 | [3] 0 | [4] 0.026 | [5] 0.032 | [6] -0.018 | [7] 0.007 | [8] 0.059 | [9] -0.01 | [10] 0.093 | [11] -0.045 | [12] 0.025 | [13] -0.001 | [14] -0.057 | [15] -0.026 | [16] 0.1 | [17] 0.056 | [18] 0.052 | [19] 0.034 | [20] 0.023

EEF1D isoform 2 (UniProt P29692)
inactive: [1] -0.038 | [2] 0.021 | [3] -0.052 | [4] -0.061 | [5] -0.001 | [6] 0.001 | [7] 0.049 | [8] 0.039 | [9] -0.003 | [10] 0.005 | [11] -0.013 | [12] 0.032 | [13] -0.015 | [14] -0.077 | [15] 0.066 | [16] 0.03 | [17] -0.008 | [18] 0.02 | [19] -0.011 | [20] 0.049

EEF1A1P5 (UniProt Q5VTE0)
inactive: [1] -0.022 | [2] -0.065 | [3] -0.021 | [4] -0.015 | [5] -0.218 | [6] -0.027 | [7] 0.127 | [8] 0.023 | [9] 0.009 | [10] 0 | [11] -0.006 | [12] 0.027 | [13] -0.026 | [14] -0.114 | [15] -0.098 | [16] 0.044 | [17] -0.001 | [18] 0.011 | [19] -0.017 | [20] 0.117

ECPAS (UniProt Q5VYK3)
inactive: [1] 0.019 | [2] 0.012 | [3] 0.014 | [4] 0.003 | [5] -0.013 | [6] 0.012 | [7] -0.039 | [8] 0.004 | [9] 0.006 | [10] -0.004 | [11] -0.034 | [12] -0.019 | [13] -0.014 | [14] -0.012 | [15] -0.002 | [16] -0.135 | [17] 0.008 | [18] 0.005 | [19] -0.044 | [20] 0.03

EBNA1BP2 (UniProt Q99848)
inactive: [1] 0.011 | [2] -0.003 | [3] -0.011 | [4] 0.019 | [5] 0.006 | [6] 0.018 | [7] -0.021 | [8] -0.01 | [9] 0.007 | [10] -0.027 | [11] -0.012 | [12] 0.011 | [13] 0.028 | [14] 0.02 | [15] 0.009 | [16] -0.004 | [17] -0.002 | [18] -0.04 | [19] -0.03 | [20] 0.023

ECI1 (UniProt P42126)
inactive: [1] 0.015 | [2] 0 | [3] -0.023 | [4] 0.029 | [5] 0.021 | [6] 0 | [7] -0.041 | [8] 0.013 | [9] 0.008 | [10] -0.003 | [11] 0.005 | [12] -0.011 | [13] 0.037 | [14] -0.024 | [15] 0.009 | [16] 0.008 | [17] -0.004 | [18] -0.006 | [19] -0.026 | [20] -0.026

ECD isoform 3 (UniProt O95905)
inactive: [1] 0.013 | [2] -0.001 | [3] 0.033 | [4] 0.024 | [5] -0.104 | [6] 0.059 | [7] 0 | [8] -0.013 | [9] 0.03 | [10] -0.018 | [11] 0.009 | [12] -0.018 | [13] -0.123 | [14] -0.018 | [15] -0.035 | [16] -0.034 | [17] -0.065 | [18] 0.017 | [19] -0.061 | [20] 0.023
